No constants are given. Whether binding was seen depends on the method and setting. In cells and extracts the contact can be indirect. These calls come from enrichment with a bait or labelling near it, and not all partners need be listed. Where a sequence is shown, tags or fusion partners need not be part of it.
B1: syntaxin-5 (protein, UniProt Q8K1E0 1-355)
chain: MIPRKRYGSKNTDQGVYLGLSKTQVLSPATAISSSSDSTPLPTPVALVPSPPDTMSCRDRTQEFQSACKSLQSRQNGIQTSKPALHAARQCSEFTLMARRIGKDLSNTFAKLEKLTILAKRKSLFDDKAVEIEELTYIIKQDINSLNKQIAQLQDFVRAKGSQSGRHLQTHSNTIVVSLQSKLASMSNDFKSVLEVRTENLKQQRNRREQFSRAPVSALPLAPNNLGGGPIILGAESRASRDVAIDMMDPRTSQQLQLIDEQDSYIQSRADTMQNIESTIVELGSIFQQLAHMVKEQEETIQRIDENVLGAQLDVEAAHSEILKYFQSVTSNRWLMVKIFLILIVFFIIFVVFLA
B2: GOS-28 (protein, UniProt O88630 1-250)
chain: MAAGTSNYWEDLRKQARQLENELDLKLVSFSKLCTSYSHSGSRDGGRDRYSSDTTPLLNGSSQDRMFETMAIEIEQLLARLTGVNDKMAEYTHSAGVPSLNAALMHTLQRHRDILQDYTHEFHKTKANFTAIRERENLMGSVRKDIESYKSGSGVNNRRTELFLKEHDHLRNSDRLIEETISIAMATKENMTSQRGMLKSIHSKMNTLANRFPAVNSLIQRINLRKRRDSLILGGVIGICTILLLLYAFH
B3: golgin-84 (protein, UniProt Q9QYE6 1-729)
chain: MSWFADLAGRAEDLLNRVDQGAATALRKENTSNIFYSKNTDYPELQQQNTDSNYQTGQKANYISSAADNIRHQKATILAGTANVKVGSRTVGDATHPTEHASAPRPSSQFVRRKKSEPDDELLFDFLNSSQKEPTGRVEVKKEKGRAPVSPSSPSGVSSVNTSVTTTKAMGGNAGSQSPGVNSSDSVPEVHKEPSEESTAPSATSEEHSSTPSDGSSRSQELSNLRLENQLLRNEVQSLNQEMASLLQRSKETQEELNKARVRVEKWNVDNSKSDRITRELRAQVDDLTEAVAAKDSQLAVLKVRLQEADQVLSSRTEALEALRSEKSRIMQDHKEGSSLQNQALQTLQERLHEADATLKREQESYKQMQSEFAARLNKMEVDRQNLAEAVTLAERKYSEEKKKVDELQQQVKLHRASLESAKQELVDYKQKATRILQSKEKLINSLKEGSSFEGLESSTASSMELEELRHEKEMQKEEIQKLMGQMHQLRSELQDMEAQQVSEAESAREQLQDLQDQIAKQRTSKQELETELERMKQEFRYMEEDLHRTKNTLQSRIKDREEEIQKLRNQLTNKTLSNSSQSELESRLHQLTETLIQKQTMLESLSTEKNSLVFQLERLEQQVHSASSGPNSGSAINMSGVDSGEGTRLRNVPVLFNDTETNLAGMYGKVRKAASSIDQFSIRLGIFLRRYPIARVFVIIYMALLHLWVMIVLLTYSPEMHHDQPYGK
B4: Scyl3 (protein, UniProt Q9DBQ7 1-735)
chain: MGSENSALKSYTLRESPFTLPSGLAVYPAILQDGKCASVFVYKRENEDKVNKAAKHLKTLRHPCLLRFLSCTVEADGIHLVTERVQPLEVALETLSPAEVCAGIYDILLALIFLHDRGHLTHNNVCLSSVFVSEDGHWKLGGMETVCQVPQATPEFLRNIQSVRDPASIPPEEMSPEFSGLPESHGHARDAYAFGALVDSLLPIFNEQVSADVLSSFLQILHSALLNPMPECRPALSTLLSHDFFRNDFLEVVNFLKSLTLKSEDEKTEFFKFLLDRVSCLSEELIASRLVPLLLNQLVFAEPVAVKSFLPYLLGPKKENAPGETPCLLSPALFQSRVIPVLLRLFEVHEEHVRMVLLSHIEAYVEHFTQEQLKKVILPQVLLGLRDTSNSIVAITLRSLAVLVSLLGPEVVVGGERTKIFKRTAPSFTKTSDLSPEGSPMHVVCSQQSRVSKVLEDPSSNVFPKWLSGNVPSSSRKRIQEECYSSLSQTGDQFSHTIKFPMNGLSDVKNTSEDNGSFPAGSNKPEEWPDWSEPEEPEQQPASIHRWPREPCDVAESQHTNLTAEEVTWDDGEASFGTEINSTATASAPVPVTSGGQSTSAALVPLTEESKPLQSSPSSKTSHRQHEEVKPPQVSQERPLKAPSGLGLGEEFTIQVKKKPVQDPELDWFADMIPEIKPSGTFLILPELRTEVMVPDKDNVSSLMQFSSKFAATEMTEGEAEGWEGEELAWEDNNW
B5: WWOX (protein, UniProt Q91WL8 1-414)
chain: MAALRYAGLDDTDSEDELPPGWEERTTKDGWVYYANHTEEKTQWEHPKTGKRKRVAGDLPYGWEQETDENGQVFFVDHINKRTTYLDPRLAFTVDDNPTKPTTRQRYDGSTTAMEILQGRDFTGKVVLVTGANSGIGFETAKSFALHGAHVILACRNLSRASEAVSRILEEWHKAKVEAMTLDLAVLRSVQHFAEAFKAKNVSLHVLVCNAGTFALPWGLTKDGLETTFQVNHLGHFYLVQLLQDVLCRSSPARVIVVSSESHRFTDINDSSGKLDLSRLSPPRSDYWAMLAYNRSKLCNILFSNELHRRLSPRGVTSNAVHPGNMMYSAIHRNSWVYKLLFTLARPFTKSMQQGAATTVYCAVAPELEGLGGMYFNNCCRCLPSEEAQSEETARALWELSERLIQDRLGSPSS
B6: TMEM165 (protein, UniProt P52875 34-323)
chain: GPEEDLSHRNQEPPAPAQQLQPQPAAVQGLEPARAEKGLTPVAPVHTNKEDAAAQTNLGFIHAFVAAISVIIVSELGDKTFFIAAIMAMRYNRLTVLAGAMLALALMTCLSVLFGYATTVIPRVYTYYVSTALFAIFGIRMLREGLKMSPDEGQEELEEVQAELKKKDEEFQRTKLLNGPDVETGTSTAIPQKKWLHFISPIFVQALTLTFLAEWGDRSQLTTIVLAAREDPYGVAVGGTVGHCLCTGLAVIGGRMIAQKISVRTVTIIGGIVFLAFAFSALFISPESGF
B7: ERGIC-53 (protein, UniProt Q9D0F3 31-517)
chain: DGTGGDAAAPGAAGTQAELPHRRFEYKYSFKGPHLVQSDGTVPFWAHAGNAIPSADQIRIAPSLKSQRGSVWTKAKAAFENWEVEVTFRVTGRGRIGADGLAIWYTENQGLDGPVFGSADTWNGVGIFFDSFDNDGKKNNPAIVVIGNNGQINYDHQNDGATQALASCQRDFRNKPYPVRAKITYYQKTLTVMINNGFTPDKNDYEFCAKVENMVIPTQGHFGISAATGGLADDHDVLSFLTFQLTEPGKEPPTAEKDISEKEKEKYQEEFEHFQQELDKKKEEFQKGHPDLQGQPADDIFESIGDRELRQVFEGQNRIHLEIKQLNRQLDMILDEQRRYVSSLTEEISRRGAGTPGQPGQVSQQELDTVVKSQQEILRQVNEVKNSMSETVRLVSGIQHPGSAGVYETTQHFMDIKEHLHVVKRDIDSLAQRSMPSNEKPKCPDLPPFPSCLSTIHFVIFVVVQTVLFVGYIMYRTQQEAAAKKFF

How the values were obtained:
[1] = target: T1, γ2-COP-ultraID (γ2-COP subunit of coatomer with ultraID fused to its C-terminus) (UniProt Q9QXK3); assay: proximity labelling
T1 sequence: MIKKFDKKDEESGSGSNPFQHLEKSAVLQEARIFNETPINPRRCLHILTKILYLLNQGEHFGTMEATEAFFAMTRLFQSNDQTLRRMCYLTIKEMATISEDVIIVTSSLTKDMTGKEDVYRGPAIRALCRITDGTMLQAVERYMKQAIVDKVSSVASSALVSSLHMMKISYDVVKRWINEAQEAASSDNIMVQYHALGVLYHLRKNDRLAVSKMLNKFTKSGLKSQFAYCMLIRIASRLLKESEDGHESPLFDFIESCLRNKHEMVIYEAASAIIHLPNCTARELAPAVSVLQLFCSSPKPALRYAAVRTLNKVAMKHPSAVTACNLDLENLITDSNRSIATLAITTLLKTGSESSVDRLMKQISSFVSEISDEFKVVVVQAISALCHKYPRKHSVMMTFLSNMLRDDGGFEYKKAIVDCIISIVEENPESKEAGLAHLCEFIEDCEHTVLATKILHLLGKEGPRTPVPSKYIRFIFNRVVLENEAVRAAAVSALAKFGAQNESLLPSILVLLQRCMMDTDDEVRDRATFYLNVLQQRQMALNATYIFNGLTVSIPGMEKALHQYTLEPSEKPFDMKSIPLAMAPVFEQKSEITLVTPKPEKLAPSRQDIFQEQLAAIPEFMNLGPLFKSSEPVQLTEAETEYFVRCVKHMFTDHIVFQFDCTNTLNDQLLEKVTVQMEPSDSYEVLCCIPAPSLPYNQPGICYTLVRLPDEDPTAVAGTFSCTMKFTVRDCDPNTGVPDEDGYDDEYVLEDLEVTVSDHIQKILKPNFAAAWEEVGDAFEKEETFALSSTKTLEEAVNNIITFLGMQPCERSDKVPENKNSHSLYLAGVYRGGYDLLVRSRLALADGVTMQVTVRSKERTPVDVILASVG

[2] = target: T2, γ1-COP-ultraID (γ1-COP subunit of coatomer with ultraID fused to its C-terminus) (UniProt Q9QZE5); assay: proximity labelling
T2 sequence: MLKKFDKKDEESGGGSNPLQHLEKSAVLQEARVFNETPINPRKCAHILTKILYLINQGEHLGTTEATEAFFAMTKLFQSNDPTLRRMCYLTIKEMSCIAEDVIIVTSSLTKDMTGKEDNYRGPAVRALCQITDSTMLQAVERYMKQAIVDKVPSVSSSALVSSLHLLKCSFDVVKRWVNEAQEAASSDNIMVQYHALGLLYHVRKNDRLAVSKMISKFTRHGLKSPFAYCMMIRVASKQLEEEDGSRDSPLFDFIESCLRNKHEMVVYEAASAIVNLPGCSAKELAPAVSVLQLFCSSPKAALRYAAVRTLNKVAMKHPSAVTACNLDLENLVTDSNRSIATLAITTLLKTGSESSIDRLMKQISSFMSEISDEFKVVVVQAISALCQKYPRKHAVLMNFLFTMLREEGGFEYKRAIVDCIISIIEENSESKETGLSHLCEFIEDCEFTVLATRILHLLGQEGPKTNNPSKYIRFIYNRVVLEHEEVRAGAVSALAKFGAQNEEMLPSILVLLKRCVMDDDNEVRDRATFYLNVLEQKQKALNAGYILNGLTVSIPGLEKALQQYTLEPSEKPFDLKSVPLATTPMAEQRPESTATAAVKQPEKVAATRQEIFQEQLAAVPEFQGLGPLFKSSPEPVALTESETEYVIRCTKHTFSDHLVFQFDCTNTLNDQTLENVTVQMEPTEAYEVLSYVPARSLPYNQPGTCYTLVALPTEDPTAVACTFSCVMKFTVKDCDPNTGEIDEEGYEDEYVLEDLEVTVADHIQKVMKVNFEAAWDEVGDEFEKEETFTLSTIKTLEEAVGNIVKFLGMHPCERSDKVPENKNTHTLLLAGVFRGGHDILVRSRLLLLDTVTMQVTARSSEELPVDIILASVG

| Binder | binding [1] | binding [2] |
| --- | --- | --- |
| B1 | binds | binds |
| B2 | binds | binds |
| B3 | – | binds |
| B4 | binds | – |
| B5 | – | binds |
| B6 | – | binds |
| B7 | – | binds |

— article doi:10.1101/2021.06.16.448656
